Data on one molecule can be found in patent US6649637B2, “Inhibition of intracellular replication by pyridinylimidazoles” (priority 2001, dated 2003).

Structures are written as SMILES.

Broadly, the IC50 is the midpoint of a concentration-inhibition curve.

Assay [1] relates to SB203580-resistant Me49 polyclonal population.
Assay [2] concerns T. gondii RH strain tachyzoites. In words: [3H]methyluracil incorporation: intracellular tachyzoite replication in human fibroblasts, RH strain. In kind it is cell-based. To be noted: Toxoplasma gondii, Fibroblast, read-out: IC50 for inhibition of RH strain replication.
For assay [3], the system named is T. gondii Me49 strain tachyzoites. Put plainly: [3H]methyluracil incorporation: intracellular tachyzoite replication in human fibroblasts, Me49 strain. The conditions noted are these: Toxoplasma gondii, Fibroblast, read-out: IC50 for inhibition of Me49 strain replication. In kind it is cell-based.

Turning to `C[S+]([O-])c1ccc(-c2nc(-c3ccc(F)cc3)c(-c3ccncc3)[nH]2)cc1` (stereo not drawn) [SB203580, 4(4-fluorophenyl)-2-(4-methylsulfinylphenyl)-5(4-pyridyl)1H-imidazole], in assay [1], the “IC50 of resistant Me49 population higher than that for parental tachyzoites” value was “approximately 11 fold”. In addition, the IC50 was approximately 6 µM in assay [2] and approximately 500 nM in assay [3].
